Results on one molecule are retold here after article PMC8185084.

The chains behind the UniProt entries cited, without tags or fusion partners. Where a name states a change or a piece, a line headed by the entry shows the natural chain unless it says otherwise.
UniProt Q60749: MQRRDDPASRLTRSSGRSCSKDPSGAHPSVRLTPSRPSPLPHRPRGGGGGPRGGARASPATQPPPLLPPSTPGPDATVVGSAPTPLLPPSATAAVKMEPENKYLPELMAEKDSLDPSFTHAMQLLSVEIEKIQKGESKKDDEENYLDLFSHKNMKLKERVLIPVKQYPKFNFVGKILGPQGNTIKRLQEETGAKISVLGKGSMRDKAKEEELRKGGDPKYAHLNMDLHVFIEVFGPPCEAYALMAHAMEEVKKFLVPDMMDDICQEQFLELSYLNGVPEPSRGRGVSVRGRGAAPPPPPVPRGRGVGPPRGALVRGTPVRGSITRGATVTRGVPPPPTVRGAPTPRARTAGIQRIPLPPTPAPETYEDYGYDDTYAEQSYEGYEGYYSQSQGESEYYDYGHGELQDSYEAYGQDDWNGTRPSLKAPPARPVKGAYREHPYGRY

No constants are given. Whether binding was seen depends on the method and setting. In cells and extracts the contact can be indirect. Tags and fused reporters may be left off the sequences shown.

For this test, the target named is HA-tagged Sam68 with P5 truncation (UniProt Q60749). As to the kind of experiment: co-IP; HA-Sam68^ΔP5 and Flag-CRTC2 (Supplementary Fig. 4j); cells and direction not given.

B1: FLAG-tagged CRTC2 (protein, UniProt Q3U182 1-692)
chain: MATSGANGPGSATASASNPRKFSEKIALQKQRQAEETAAFEEVMMDIGSTRLQAQKLRLAYTRSSHYGGSLPNVNQIGCGLAEFQSPLHSPLDSSRSTRHHGLVERVQRDARRMVSPLRRYPRHIDSSPYSPAYLSPPPESGWRRMMPWGNLPAEKGQLFRLPSALNRTSSDSALHTSVMNPNPQDTYPGPTPPSVLPSRRGGGFLDGEMDAKVPAIEENVVDDKHLLKPWDAKKLSSSSSRPRSCEVPGINIFPSPDQPANVPVLPPAMNTGGSLPDLTNLHFPPPLPTPLDPEETVYPSLSGGNSTTNLTHTMTHLGISGGLGLGPSYDVPGLHSPLSHPSLQSSLSNPNLQASLSSPQPQLQGSHSHPSLPASSLAHHALPTTSLGHPSLSAPALSSSSSSSSTSSPVLSAPPYPASTPGASPRHRRVPLSPLSLPAGPADARRSQQQLPKQFSPTMSPTLSSITQGVPLDTSKLPTDQRLPPYPYSPPSLVIPTHPPTPKSLQQLPSQACLVQPSGGQPPGRQPHYGALYPPGSSGHGQQPYHRPINDFSLGNLEQFNMESPSTSLVLDPPAFSEGPGFLGSEGSMSGPQDPHVLNHQNLTHCSRHGSGPNIILTGDSSPGFSKEIAAALAGVPGFEVSASGLELGLGLEDELRMEPLGLEGLTMLSDPCALLPDPAVEDSFRSDRLQ
Regarding B1, the binding entry is “no binding”.
